No constants are given. Whether binding was seen depends on the method and setting. In cells and extracts the contact can be indirect. Some results given as binding are weak or reduced against the parent protein; the word gives no strength.
B1: PDIA6 (protein, UniProt Q922R8 20-440)
chain: LYSSSDDVIELTPSNFNREVIQSDGLWLVEFYAPWCGHCQRLTPEWKKAATALKDVVKVGAVNADKHQSLGGQYGVQGFPTIKIFGANKNKPEDYQGGRTGEAIVDAALSALRQLVKDRLGGRSGGYSSGKQGRGDSSSKKDVVELTDDTFDKNVLDSEDVWMVEFYAPWCGHCKNLEPEWAAAATEVKEQTKGKVKLAAVDATVNQVLASRYGIKGFPTIKIFQKGESPVDYDGGRTRSDIVSRALDLFSDNAPPPELLEIINEDIAKKTCEEHQLCVVAVLPHILDTGAAGRNSYLEVLLKLADKYKKKMWGWLWTEAGAQYELENALGIGGFGYPAMAAINARKMKFALLKGSFSEQGINEFLRELSFGRGSTAPVGGGSFPTITPREPWDGKDGELPVEDDIDLSDVELDDLEKDEL
B2: P58^IPK (protein, UniProt Q91YW3 32-504)
chain: GVNADVEKHLELGKKLLAAGQLADALSQFHAAVDGDPDNYIAYYRRATVFLAMGKSKAALPDLTKVIALKMDFTAARLQRGHLLLKQGKLDEAEDDFKKVLKSNPSEQEEKEAESQLVKADEMQRLRSQALDAFDGADYTAAITFLDKILEVCVWDAELRELRAECFIKEGEPRKAISDLKAASKLKSDNTEAFYKISTLYYQLGDHELSLSEVRECLKLDQDHKRCFAHYKQVKKLNKLIESAEELIRDGRYTDATSKYESVMKTEPSVAEYTVRSKERICHCFSKDEKPVEAIRICSEVLQMEPDNVNALKDRAEAYLIEEMYDEAIQDYEAAQEHNENDQQIREGLEKAQRLLKQSQKRDYYKILGVKRNAKKQEIIKAYRKLALQWHPDNFQNEEEKKKAEKKFIDIAAAKEVLSDPEMRKKFDDGEDPLDAESQQGGGGNPFHRSWNSWQGFNPFSSGGPFRFKFHFN
B3: GRP170 (protein, UniProt Q9JKR6 33-999)
chain: LAVMSVDLGSESMKVAIVKPGVPMEIVLNKESRRKTPVTVTLKENERFLGDSAAGMAIKNPKATLRYFQHLLGKQADNPHVALYRSRFPEHELIVDPQRQTVRFQISPQLQFSPEEVLGMVLNYSRSLAEDFAEQPIKDAVITVPAFFNQAERRAVLQAARMAGLKVLQLINDNTATALSYGVFRRKDINSTAQNVMFYDMGSGSTVCTIVTYQTVKTKEAGMQPQLQIRGVGFDRTLGGLEMELRLREHLAKLFNEQRKGQKAKDVRENPRAMAKLLREANRLKTVLSANADHMAQIEGLMDDVDFKAKVTRVEFEELCADLFDRVPGPVQQALQSAEMSLDQIEQVILVGGATRVPKVQEVLLKAVGKEELGKNINADEAAAMGAVYQAAALSKAFKVKPFVVRDAVIYPILVEFTREVEEEPGLRSLKHNKRVLFSRMGPYPQRKVITFNRYSHDFNFHINYGDLGFLGPEDLRVFGSQNLTTVKLKGVGESFKKYPDYESKGIKAHFNLDESGVLSLDRVESVFETLVEDSPEEESTLTKLGNTISSLFGGGTSSDAKENGTDAVQEEEESPAEGSKDEPAEQGELKEEAEPPAEETSQPPPSEPKGDAAREGEKPDEKESGDKPEAQKPNEKGQAGPEGAAPAPEEDKKPKPARKQKMVEEIGVELAVLDLPDLPEDELARSVQKLEELTLRDLEKQEREKAANSLEAFIFETQDKLYQPEYQEVSTEEQREEISGKLSATSTWLEDEGFGATTVMLKDKLAELRKLCQGLFFRVEERRKWPERLSALDNLLNHSSIFLKGARLIPEMDQVFTEVEMTTLEKVINDTWAWKNATLAEQAKLPATEKPVLLSKDIEAKMMALDREVQYLLNKAKFTKPRPRPKDKNGTRAEPPLNASAGDQEEKVIPPAGQTEEAKPILEPDKEETGTEPADSEPLELGGPGAGPEQEEQSAGQKRPSKNDEL

By UniProt entry, the sequences of proteins in these tests, tags left out. Residues count along the entry.
UniProt P20029, residues 20-655: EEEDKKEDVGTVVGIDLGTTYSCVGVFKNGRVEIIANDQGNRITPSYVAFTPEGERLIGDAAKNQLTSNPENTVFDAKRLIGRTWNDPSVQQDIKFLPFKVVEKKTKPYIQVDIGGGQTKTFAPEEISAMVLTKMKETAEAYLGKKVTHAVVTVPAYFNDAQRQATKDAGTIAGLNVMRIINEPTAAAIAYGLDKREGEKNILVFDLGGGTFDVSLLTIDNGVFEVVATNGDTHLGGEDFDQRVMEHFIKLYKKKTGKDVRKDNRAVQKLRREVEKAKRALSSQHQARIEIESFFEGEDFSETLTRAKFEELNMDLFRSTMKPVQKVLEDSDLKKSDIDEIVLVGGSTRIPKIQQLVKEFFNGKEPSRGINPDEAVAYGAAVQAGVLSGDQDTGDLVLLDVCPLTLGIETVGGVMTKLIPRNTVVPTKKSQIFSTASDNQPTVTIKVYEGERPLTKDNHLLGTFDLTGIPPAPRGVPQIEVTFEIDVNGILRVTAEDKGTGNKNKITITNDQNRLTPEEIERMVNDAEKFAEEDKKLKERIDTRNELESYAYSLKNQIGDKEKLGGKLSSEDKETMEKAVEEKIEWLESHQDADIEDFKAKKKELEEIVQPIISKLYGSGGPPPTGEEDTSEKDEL

These binders were tested against BiP-FLAG (BiP/GRP78 with a 3xFLAG tag inserted just upstream of the KDEL signal) (mouse) (UniProt P20029) (assay: co-IP).

binding, binds:
B1, B2, B3

— article doi:10.1101/2020.01.01.892539
